# PubChem BioAssay (NCATS)
# Sequences of proteins named here, by UniProt entry; tags and fusion partners are left off. A change or cut given only in a name is not applied to a line headed by its entry.
# UniProt P10828: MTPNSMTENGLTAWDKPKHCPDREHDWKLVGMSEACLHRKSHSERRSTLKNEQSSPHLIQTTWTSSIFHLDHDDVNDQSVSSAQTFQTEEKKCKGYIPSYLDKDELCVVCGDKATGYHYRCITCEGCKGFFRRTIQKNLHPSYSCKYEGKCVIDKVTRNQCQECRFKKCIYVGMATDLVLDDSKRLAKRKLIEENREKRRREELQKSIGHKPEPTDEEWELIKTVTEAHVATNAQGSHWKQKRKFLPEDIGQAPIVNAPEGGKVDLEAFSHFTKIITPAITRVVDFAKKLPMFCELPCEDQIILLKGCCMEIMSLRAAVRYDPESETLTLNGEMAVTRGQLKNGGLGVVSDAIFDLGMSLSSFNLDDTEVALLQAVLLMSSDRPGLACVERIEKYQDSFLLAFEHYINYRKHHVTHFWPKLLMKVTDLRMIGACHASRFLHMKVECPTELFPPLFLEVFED
# UniProt P19793: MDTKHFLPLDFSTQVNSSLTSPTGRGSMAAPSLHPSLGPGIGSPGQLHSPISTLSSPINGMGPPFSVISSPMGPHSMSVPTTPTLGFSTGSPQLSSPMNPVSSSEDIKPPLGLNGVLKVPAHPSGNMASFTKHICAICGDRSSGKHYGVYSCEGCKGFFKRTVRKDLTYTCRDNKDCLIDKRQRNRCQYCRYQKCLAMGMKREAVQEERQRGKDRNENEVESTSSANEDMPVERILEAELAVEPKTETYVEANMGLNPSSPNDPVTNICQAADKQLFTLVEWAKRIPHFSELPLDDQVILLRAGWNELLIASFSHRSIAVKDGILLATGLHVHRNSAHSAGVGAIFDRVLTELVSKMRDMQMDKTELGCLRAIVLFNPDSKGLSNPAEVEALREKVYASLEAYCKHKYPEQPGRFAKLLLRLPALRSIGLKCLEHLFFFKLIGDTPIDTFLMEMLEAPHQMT
# Where “and” joins values, the source holds several entries; their conditions need not be identical. Identical values can stand only once. Inconclusive means that the source gave no clear call. Such entries were picked first, then a sample of the others. Potencies beside an inconclusive call are fits to weak or partial responses and may not hold up. For some of these results: A note “side channel” means that the fit belongs to a control or component signal, not to the main read-out. Calls of active or inactive are those of the source. Unless noted, calls follow the shape of the full dose curve.
# Biological target: Thyroid hormone receptor beta (Homo sapiens) (UniProt P10828)
# Assay: qHTS assay for small molecule agonists of thyroid hormone receptor beta signaling (AID 588545)
# Details: TR-UAS-bla GripTite HEK 293, beta-lactamase ratio, agonist mode, 18 h; activation: at 76.7 µM, percent of T3 response, DMSO as zero
# Procedure, shortened: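 In this cell-based screen, titrated compounds act on HEK 293 cells held in medium with 2% charcoal/dextran FBS, NEAA and pyruvate for 18 hrs at 37 C. Responses are expressed relative to T3 (10 nM) as 100% and basal DMSO as 0%.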
# Potency is read from the fitted curve at half-maximal effect.
Structure (SMILES),activation,Potency
CC[C@H](C)C(=O)O[C@H]1C[C@@H](C)C=C2C=C[C@H](C)[C@H](CC[C@@H]3C[C@@H](O)CC(=O)O3)[C@H]21,inconclusive: -14.4%,
COc1ccc2[nH]cc(CCNC(C)=O)c2c1,inconclusive: -44.8%,
Cc1ccc(-c2cc(C(F)(F)F)nn2-c2ccc(S(N)(=O)=O)cc2)cc1,,"inconclusive: 10 µM [side channel, falling, partial curve, poor fit]"
NS(=O)(=O)c1cc2c(cc1Cl)NC=NS2(=O)=O,inactive: -38.5%,
CC(C)(Sc1ccc(CCN(CCCCC2CCCCC2)C(=O)NC2CCCCC2)cc1)C(=O)O,,"inconclusive: 31.6 µM [side channel, falling, partial curve, poor fit]"
O=C1CCC(N2C(=O)c3ccccc3C2=O)C(=O)N1 (stereo unspecified),,"inconclusive: 0.0011 µM [side channel, falling, full curve, poor fit]"

# Biological target: Retinoic acid receptor RXR-alpha (Homo sapiens) (UniProt P19793)
# Assay: qHTS assay for small molecule antagonists of retinoid X receptor alpha signaling (AID 588546; active = well fitted inhibition curve with a large enough effect in the signal ratio, with a control signal flat, not every such curve was filed as active; inconclusive = small, poorly fitted or top-dose-only effect, or effect the other way, or a change in a side signal; inactive = no such curve, though single readings can be large or run the other way; the % refers to the signal ratio;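 as to max response: cells stimulated with 9-cis-retinoic acid as agonist; % is scaled to controls: 0 for no effect and ±100 for the full control effect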)
# Details: HEK293T RXRa-UAS-bla, beta-lactamase ratio, antagonist mode
# Procedure, shortened: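 Beta-lactamase reporter inhibition, read as CCF4 fluorescence ratio (ex 405, em 460/530 nm) after 2 h at RT. HEK293T UAS-bla cells, 2500/well, were stimulated with 9-cis-RA at 500 or 100 nM final alongside test compound for 18 h at 37 C.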
Structure (SMILES),Potency,max response
CC[C@H](C)C(=O)O[C@H]1C[C@@H](C)C=C2C=C[C@H](C)[C@H](CC[C@@H]3C[C@@H](O)CC(=O)O3)[C@H]21,"inconclusive: 35.5 µM [inhibitor, partial curve, poor fit]",
NC(=O)c1cnccn1,,inconclusive: -0.624%
Cc1ccc(-c2cc(C(F)(F)F)nn2-c2ccc(S(N)(=O)=O)cc2)cc1,,inconclusive: -40%
NS(=O)(=O)c1cc2c(cc1Cl)NC=NS2(=O)=O,,inactive: 14.3%
COc1c2occc2cc2ccc(=O)oc12,,inactive: 1.26% and inactive: 12.5%
CC1=NN(c2ccccc2)C(=O)C1,,inconclusive: -41.8%

# Biological target: Thyroid hormone receptor beta (Homo sapiens) (UniProt P10828)
# Assay: qHTS assay for small molecule antagonists of thyroid hormone receptor beta signaling (AID 588547; active = well fitted inhibition curve with a large enough effect in the signal ratio, with a control signal flat, not every such curve was filed as active; inconclusive = small, poorly fitted or top-dose-only effect, or effect the other way, or a change in a side signal; the % refers to the signal ratio;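 as to activity change % (negative = inhibition): cells stimulated with 0.4 nM T3 agonist during compound exposure; series mostly up to about 77 µM; % is scaled to controls: 0 for no effect and ±100 for the full control effect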)
# Details: TR-UAS-bla HEK293, beta-lactamase ratio, antagonist mode, 18 h
# Procedure, shortened: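 TR-UAS-bla GripTite HEK293 cells in 2% charcoal/dextran FBS medium were preincubated 4 h at 37 C, given compound (0.59 nM to 92 uM) plus 0.4 nM T3 (final) for 18 h, then CCF4 for 2 h at RT; Hill fit gave IC50.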
Structure (SMILES),activity change % (negative = inhibition),Potency
CC[C@H](C)C(=O)O[C@H]1C[C@@H](C)C=C2C=C[C@H](C)[C@H](CC[C@@H]3C[C@@H](O)CC(=O)O3)[C@H]21,inconclusive: 18.7%,
Nc1ccc(S(N)(=O)=O)cc1,inactive: -5.21%,
CC(C)(Sc1ccc(CCN(CCCCC2CCCCC2)C(=O)NC2CCCCC2)cc1)C(=O)O,,"inconclusive: 50.1 µM [cytotoxic, side channel, partial curve, poor fit]"
CC(=O)N1CCN(c2ccc(OC[C@H]3CO[C@](Cn4ccnc4)(c4ccc(Cl)cc4Cl)O3)cc2)CC1,inconclusive: -84%,
